Values from PubChem BioAssay AID1259254 (NCATS, 2017)

Screen: 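Gene knock-downs that lead to re-replication, shown by excess G2 DNA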 (primary screen)
Cells: human HCT116 colorectal cancer cells
Knock-down reagent: single siRNA against human genes
Timing: 3 days
Detection: 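Imaged Hoechst DNA stain sorts each cell into a cycle phase by DNA amount; per plate, G2 fraction set to 0% for non-targeting and 100% for GMNN siRNA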
Direction: G2 robust z-score and G2 cells, % of GMNN control: higher = more G2 cells, more excess DNA replication; raw share of cells in G2: higher = larger share of cells with G2 DNA content
Active means: 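An siRNA counts as active if its G2 robust z-score lies at least 5 MADs above the screen median; here such calls match roughly 38% of GMNN control or more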
This is an unselected part of about 59,000 deposited reagents. About 1,550 of all reagents (2.6%) were called active. 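G2 share is only a proxy for re-replication; each gene was hit by three separate siRNAs, and active genes were retested.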 Raw values vary from plate to plate and are shown uncorrected. Reagents against one gene are numbered here. The record does not give: the amount of reagent.

| Gene | reagent | G2 robust z-score | G2 cells, % of GMNN control | raw share of cells in G2 (%) | Outcome |
| --- | --- | --- | --- | --- | --- |
| CDH19 | 1 | -0.485 | -0.447 | 4.04 | inactive |
| CDH19 | 2 | -1.29 | -6.13 | 1.98 | inactive |
| CDH19 | 3 | -1.19 | -5.44 | 3.7 | inactive |
| HINT1P1 | 1 | -0.729 | -2.16 | 2.83 | inactive |
| HINT1P1 | 2 | -0.591 | -1.19 | 3.01 | inactive |
| HINT1P1 | 3 | 0.218 | 4.5 | 5.19 | inactive |
| ERCC2 | 1 | 0.207 | 4.43 | 6.84 | inactive |
| ERCC2 | 2 | 7.17 | 53.4 | 25.6 | active |
| ERCC2 | 3 | -0.0824 | 2.39 | 4.51 | inactive |
| GDPD4 | 1 | 0.00441 | 3 | 5.96 | inactive |
| GDPD4 | 2 | 0.189 | 4.3 | 8.01 | inactive |
| GDPD4 | 3 | 0.672 | 7.69 | 7.52 | inactive |
| DEFB115 | 1 | -0.88 | -3.22 | 2.17 | inactive |
| DEFB115 | 2 | -0.709 | -2.02 | 2.84 | inactive |
| DEFB115 | 3 | -0.945 | -3.68 | 1.87 | inactive |
| UQCC4 | 1 | -0.974 | -3.88 | 2.23 | inactive |
| UQCC4 | 2 | 1.56 | 13.9 | 8.43 | inactive |
| UQCC4 | 3 | -0.519 | -0.687 | 3.06 | inactive |
| NCAPG2 | 1 | 1.28 | 12 | 7.16 | inactive |
| NCAPG2 | 2 | -0.0335 | 2.73 | 4.58 | inactive |
| NCAPG2 | 3 | -0.177 | 1.72 | 5 | inactive |
| ELF3 | 1 | 6.39 | 47.9 | 22.6 | active |
| ELF3 | 2 | 6.95 | 51.8 | 25 | active |
| ELF3 | 3 | 2.06 | 17.5 | 9.88 | inactive |
| UNC5B-AS1 | 1 | 0.266 | 4.84 | 4.88 | inactive |
| UNC5B-AS1 | 2 | 1.25 | 11.7 | 7.67 | inactive |
| UNC5B-AS1 | 3 | -0.516 | -0.662 | 3.67 | inactive |
| PCYOX1L | 1 | -1.13 | -5.02 | 1.37 | inactive |
| PCYOX1L | 2 | 3.81 | 29.8 | 17.5 | inactive |
| PCYOX1L | 3 | 0.429 | 5.99 | 7.29 | inactive |
| ATP10D | 1 | -0.185 | 1.67 | 6.34 | inactive |
| ATP10D | 2 | -0.84 | -2.94 | 3.31 | inactive |
| ATP10D | 3 | -0.353 | 0.482 | 4.4 | inactive |
| SLIT1 | 1 | -0.585 | -1.15 | 4.15 | inactive |
| SLIT1 | 2 | -0.785 | -2.55 | 3.11 | inactive |
| SLIT1 | 3 | 1.73 | 15.2 | 10.8 | inactive |
| RPL37AP8 | 1 | -0.646 | -1.58 | 2.69 | inactive |
| RPL37AP8 | 2 | -0.544 | -0.861 | 2.96 | inactive |
| RPL37AP8 | 3 | 0.55 | 6.84 | 6.24 | inactive |
| MAB21L3 | 1 | 0.183 | 4.25 | 5.78 | inactive |
| MAB21L3 | 2 | 2.09 | 17.7 | 8.71 | inactive |
| MAB21L3 | 3 | -0.658 | -1.66 | 1.98 | inactive |
| CMTM4 | 1 | 0.857 | 8.99 | 6.84 | inactive |
| CMTM4 | 2 | -0.837 | -2.92 | 2.01 | inactive |
| CMTM4 | 3 | -0.698 | -1.95 | 2.39 | inactive |
| ZMYND8 | 1 | -0.316 | 0.747 | 3.92 | inactive |
| ZMYND8 | 2 | 0.865 | 9.06 | 8.41 | inactive |
| ZMYND8 | 3 | -0.221 | 1.41 | 5.7 | inactive |

Ordered by “G2 robust z-score” (highest first): 6 of the entries above
| Gene | reagent | G2 robust z-score | G2 cells, % of GMNN control | raw share of cells in G2 (%) | Outcome |
| --- | --- | --- | --- | --- | --- |
| GDPD4 | 3 | 0.672 | 7.69 | 7.52 | inactive |
| GDPD4 | 2 | 0.189 | 4.3 | 8.01 | inactive |
| GDPD4 | 1 | 0.00441 | 3 | 5.96 | inactive |
| DEFB115 | 2 | -0.709 | -2.02 | 2.84 | inactive |
| DEFB115 | 1 | -0.88 | -3.22 | 2.17 | inactive |
| DEFB115 | 3 | -0.945 | -3.68 | 1.87 | inactive |
